Results published in the supplement of paper PMC3334620.
In all, about 33,000 sequences were measured (“E-score (-0.5 to 0.5)”: median about -0.0034, highest 2% from about 0.25 on). This is one part of the list.

What follows are sequences tested against T1, Yap3 (UniProt P38749) (assay: PBM E-score (8-mer binding enrichment) (E-score (-0.5 to 0.5)); higher = stronger / more preferred TF binding). Conditions: protein concentration: 100 nM; construct: GST-full length.
T1 sequence: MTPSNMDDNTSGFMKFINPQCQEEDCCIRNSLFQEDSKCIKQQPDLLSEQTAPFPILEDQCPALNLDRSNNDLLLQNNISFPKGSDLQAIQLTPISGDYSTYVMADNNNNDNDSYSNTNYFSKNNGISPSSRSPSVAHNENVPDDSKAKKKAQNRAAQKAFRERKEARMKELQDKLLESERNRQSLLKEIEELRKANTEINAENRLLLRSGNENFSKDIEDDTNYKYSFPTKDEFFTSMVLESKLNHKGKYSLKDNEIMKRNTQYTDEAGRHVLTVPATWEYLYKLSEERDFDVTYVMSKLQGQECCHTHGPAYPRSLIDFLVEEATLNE
Method: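 Universal 'all 10-mer' protein binding microarrays (Agilent AMADID 015681) probed with GST-tagged S. cerevisiae TFs (full-length or DBD) made by in vitro transcription/translation (PURExpress), about 100-200 nM. Bound TF was detected with fluorescent anti-GST. Each ungapped 8-mer (which stands for itself and its reverse complement) is scored by the PBM enrichment score (E-score), a modified Wilcoxon-Mann-Whitney statistic from -0.5 to +0.5, computed with the Universal PBM Analysis Suite. Scale: above 0.35 generally sequence-specific binding.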

| Sequence | PBM E-score |
| --- | --- |
| CCAGGGCG | -0.337 |
| GAATTGAC | 0.0879 |
| GAAGGAGC | -0.349 |
| ACATCTGG | 0.00951 |
| CATATTCG | 0.123 |
| GTAGACAA | 0.117 |
| GCGTATAA | 0.116 |
| GAGTGCTA | 0.0381 |
| AACTCCGG | 0.0615 |
| CGCGCTCC | -0.00749 |
| CTGATCCA | 0.141 |
| ACATCAAG | 0.0345 |
| ATCTATAG | 0.0968 |
| ACGGTATG | 0.0829 |
| AGTTACCG | 0.127 |
| ATCGCTAC | -0.00901 |
| AAATCAAA | 0.253 |
| TGAACCAA | 0.148 |
| AGTTTGTC | 0.0159 |
| GAGGGGAA | -0.0796 |
| ACGTACTA | 0.191 |
| CGATTCTC | 0.0246 |
| GCGCTCCA | -0.112 |
| GACCCGCA | -0.215 |
| CCTACTCC | -0.103 |

| Sequence | PBM E-score |
| --- | --- |
| ATTCTTGG | 0.0825 |
| ATTAAACC | 0.0492 |
| ACGGGCCC | -0.184 |
| CGGACGAA | 0.214 |
| GGACTTGA | -0.193 |
| GGCCCACC | -0.185 |
| ATCAATGA | 0.202 |
| AGACCCCT | -0.248 |
| CCTACGAA | 0.037 |
| GAAGGTCA | -0.0941 |
| CCGTTCAC | -0.0817 |
| CACCGGTG | 0.0119 |
| CGACGGAG | 0.0855 |
| ATTGATGG | 0.149 |
| GAATCTCC | -0.0919 |
| CCCTTCTC | -0.295 |
| CGCATCGC | -0.319 |
| CCGAAAGA | -0.00023 |
| CTTGTGTA | 0.147 |
| ACCTCCTC | -0.145 |
| CGACACTC | 0.0838 |
| GACAATAA | 0.219 |
| CTAGTAAC | 0.0477 |
| ATCCTCCG | -0.0942 |
| CAGCGCGG | 0.0182 |

5 neighbouring records out of the list so far, for reference:

| Sequence | PBM E-score |
| --- | --- |
| ACCTCCTC | -0.145 |
| CGACACTC | 0.0838 |
| GACAATAA | 0.219 |
| CTAGTAAC | 0.0477 |
| ATCCTCCG | -0.0942 |

(list continues)

| Sequence | PBM E-score |
| --- | --- |
| ATCGTCGC | 0.092 |
| TACGCCGA | -0.0911 |
| CTCACGGC | -0.104 |
| ATTGTACC | 0.111 |
| CACAGCTG | -0.193 |
| GGTACCGA | -0.289 |
| CAGTTAGG | 0.149 |
| AGTCTTAG | -0.184 |
| AAATAGGG | 0.0321 |
| GGCACTTA | -0.0403 |
| CGCACTGC | -0.032 |
| CTCGGTGC | -0.0111 |
| AAATTTAC | 0.219 |
| GAAAAACC | 0.136 |
| AGCTCAGC | -0.214 |
| AACCATCG | 0.143 |
| ACGCAGGG | -0.0779 |
| CGTTTAAG | -0.0721 |
| AAGCGGGG | -0.0456 |
| GTGAATCA | -0.0143 |
| AACTGTAC | 0.107 |
| AGACGTCT | -0.197 |
| AAATGTGT | 0.216 |
| AGCGAATA | 0.1 |
| CTGATGTA | 0.243 |

| Sequence | PBM E-score |
| --- | --- |
| TCAATGCA | -0.118 |
| GAACAGTA | 0.115 |
| GGGTAAAC | 0.0445 |
| CAGAATGG | 0.074 |
| ACCAGGGT | -0.182 |
| ACCTTGAG | 0.0293 |
| CCGGCCCC | -0.406 |
| GTTATACA | 0.167 |
| CGCGGGTC | -0.073 |
| ACGGGGAG | -0.29 |
| CGTAACAG | 0.152 |
| ATTCAAAG | 0.0234 |
| CGGAGCAC | -0.181 |
| CGCAAGGC | 0.0335 |
| ATCCTACA | -0.183 |
| ATCATGCG | -0.0578 |
| AACTCCGC | -0.123 |
| CAGACCTA | -0.0581 |
| CCTTAGTA | 0.0819 |
| CAACGACA | 0.141 |
| AAATTCAC | 0.105 |
| AGTTCGAG | 0.137 |
| AACGTCAC | -0.0539 |
| GGATTATA | 0.101 |
| GGGCGCAA | -0.215 |

| Sequence | PBM E-score |
| --- | --- |
| GGCTAAAC | 0.0162 |
| TGGTTGAA | 0.0526 |
| GATAAATA | 0.233 |
| CACCGAAG | -0.0164 |
| ATGATCCC | -0.0584 |
| GGATCACA | 0.0855 |
| CCCCAGGG | -0.433 |
| TAGAGAGA | 0.0923 |
| GTGATAAC | 0.0818 |
| ACAAATCA | 0.229 |
| AGAGATGG | 0.0996 |
| ATGCCCAC | 0.016 |
| CGGTTCTA | 0.00416 |
| CTCCAACC | 0.0793 |
| CACCGCCA | 0.081 |
| GCGTCGCC | 0.0166 |
| CAATTGCC | 0.0211 |
| CGGGGGCA | -0.27 |
| CAACCAAG | -0.0235 |
| CTCGAAAA | -0.00194 |
| CAAAAACG | 0.136 |
| CAGACCCC | -0.385 |
| ACCTCTGG | -0.158 |
| AAACCCTA | 0.0287 |
| AGATACCC | 0.0841 |

Looked up one by one from the list above (2):

| Sequence | PBM E-score |
| --- | --- |
| ACAAATCA | 0.229 |
| TAGAGAGA | 0.0923 |

Additional results follow:

| Sequence | PBM E-score |
| --- | --- |
| CGCTCATA | -0.0459 |
| AAGCCCGG | -0.138 |
| AGTAACAG | 0.201 |
| GACGAATC | 0.04 |
| GAACGATA | 0.0944 |
| ACATGAGC | -0.113 |
| ACGTCTGG | 0.00718 |
| GTGACGCA | -0.0177 |
| AAGTATAC | 0.266 |
| ACTTGAAC | 0.0487 |
| ACTCCCCC | -0.304 |
| ACCAGTCT | -0.165 |
| CACTAATG | 0.131 |
| ACTCTTCA | 0.0944 |
| CGTCTCTC | -0.0113 |
| ACCGGTTG | -0.0905 |
| GATATGAA | 0.214 |
| AGACGGAG | -0.0645 |
| ATACGCTA | 0.0444 |
| CCGTTACC | -0.0214 |
| CACAGCGA | 0.07 |
| CATAATGG | -0.033 |
| GTCGAATA | 0.0822 |
| ATCTTAGA | 0.147 |
| ATTATGTA | 0.267 |

| Sequence | PBM E-score |
| --- | --- |
| GATCAAAA | 0.113 |
| CGACGTTC | -0.309 |
| AAACGAAG | 0.14 |
| ATTCCTAA | 0.0365 |
| CTCTGCAA | -0.0711 |
| TGTCATAA | 0.102 |
| GCGACTCC | -0.271 |
| GTAAAAAA | 0.229 |
| TGGCTAAA | -0.0987 |
| GTGCGCCA | -0.245 |
| AGTCTGGG | -0.323 |
| AACACGGC | -0.0796 |
| AACTCTTG | -0.0633 |
| AGACAGAT | 0.134 |
| AGCAATGC | 0.119 |
| AGATGGGA | -0.0021 |
| AGTCGATA | 0.111 |
| ATAAGGCC | -0.0503 |
| ACGGTGTA | 0.102 |
| CGTCCCCC | -0.368 |
| AGTCGTTA | 0.0841 |
| ATCTGATG | -0.00759 |
